Values of other authors, collected in patent US20220370586A1, “METHOD OF GENERATING ACTIVATED T CELLS FOR CANCER THERAPY” (Cedars-Sinai Medical Center, priority 2019, published 2022).
For at least one compound, name, drawing or mass did not settle the structure.

System: glioma cells
Details: specifically in glioma cells, not in normal brain tissue; cited from earlier work

Nc1ncn([C@H]2C[C@H](O)[C@@H](CO)O2)c(=O)n1 [decitabine]
expression of NY-ESO-1 in glioma cells: induced the expression
